{"sequences": {"note": "Amino acid sequences for entries named in this document (tags omitted). A change or cut given only in a name is not applied to a line headed by its entry.", "UniProt Q61469": "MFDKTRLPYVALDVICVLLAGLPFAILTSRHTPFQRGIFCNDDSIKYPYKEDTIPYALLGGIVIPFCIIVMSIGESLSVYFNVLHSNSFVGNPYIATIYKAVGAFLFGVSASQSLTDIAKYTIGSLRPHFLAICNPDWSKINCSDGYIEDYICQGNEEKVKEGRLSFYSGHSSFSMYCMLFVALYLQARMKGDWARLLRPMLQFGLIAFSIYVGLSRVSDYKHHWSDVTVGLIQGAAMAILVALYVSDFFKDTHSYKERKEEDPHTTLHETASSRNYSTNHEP", "UniProt Q64521": "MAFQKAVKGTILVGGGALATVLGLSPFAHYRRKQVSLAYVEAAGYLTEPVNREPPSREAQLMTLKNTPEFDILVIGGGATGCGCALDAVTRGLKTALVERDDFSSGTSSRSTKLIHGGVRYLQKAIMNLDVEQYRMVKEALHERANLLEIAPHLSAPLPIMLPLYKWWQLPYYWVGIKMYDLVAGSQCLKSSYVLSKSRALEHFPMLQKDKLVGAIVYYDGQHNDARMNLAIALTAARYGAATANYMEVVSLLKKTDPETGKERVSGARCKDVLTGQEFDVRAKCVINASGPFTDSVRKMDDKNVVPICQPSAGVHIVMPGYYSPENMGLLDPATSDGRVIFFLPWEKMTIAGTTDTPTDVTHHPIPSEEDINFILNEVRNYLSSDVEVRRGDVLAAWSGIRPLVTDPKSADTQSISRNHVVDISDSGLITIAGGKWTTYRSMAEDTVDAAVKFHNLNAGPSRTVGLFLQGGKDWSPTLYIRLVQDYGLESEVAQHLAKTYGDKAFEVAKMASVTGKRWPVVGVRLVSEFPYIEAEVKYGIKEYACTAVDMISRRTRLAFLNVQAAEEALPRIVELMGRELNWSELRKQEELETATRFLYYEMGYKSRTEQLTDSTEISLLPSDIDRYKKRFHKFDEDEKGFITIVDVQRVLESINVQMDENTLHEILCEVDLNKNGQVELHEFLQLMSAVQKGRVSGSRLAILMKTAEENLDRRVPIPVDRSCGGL", "UniProt Q61666, whole entry": "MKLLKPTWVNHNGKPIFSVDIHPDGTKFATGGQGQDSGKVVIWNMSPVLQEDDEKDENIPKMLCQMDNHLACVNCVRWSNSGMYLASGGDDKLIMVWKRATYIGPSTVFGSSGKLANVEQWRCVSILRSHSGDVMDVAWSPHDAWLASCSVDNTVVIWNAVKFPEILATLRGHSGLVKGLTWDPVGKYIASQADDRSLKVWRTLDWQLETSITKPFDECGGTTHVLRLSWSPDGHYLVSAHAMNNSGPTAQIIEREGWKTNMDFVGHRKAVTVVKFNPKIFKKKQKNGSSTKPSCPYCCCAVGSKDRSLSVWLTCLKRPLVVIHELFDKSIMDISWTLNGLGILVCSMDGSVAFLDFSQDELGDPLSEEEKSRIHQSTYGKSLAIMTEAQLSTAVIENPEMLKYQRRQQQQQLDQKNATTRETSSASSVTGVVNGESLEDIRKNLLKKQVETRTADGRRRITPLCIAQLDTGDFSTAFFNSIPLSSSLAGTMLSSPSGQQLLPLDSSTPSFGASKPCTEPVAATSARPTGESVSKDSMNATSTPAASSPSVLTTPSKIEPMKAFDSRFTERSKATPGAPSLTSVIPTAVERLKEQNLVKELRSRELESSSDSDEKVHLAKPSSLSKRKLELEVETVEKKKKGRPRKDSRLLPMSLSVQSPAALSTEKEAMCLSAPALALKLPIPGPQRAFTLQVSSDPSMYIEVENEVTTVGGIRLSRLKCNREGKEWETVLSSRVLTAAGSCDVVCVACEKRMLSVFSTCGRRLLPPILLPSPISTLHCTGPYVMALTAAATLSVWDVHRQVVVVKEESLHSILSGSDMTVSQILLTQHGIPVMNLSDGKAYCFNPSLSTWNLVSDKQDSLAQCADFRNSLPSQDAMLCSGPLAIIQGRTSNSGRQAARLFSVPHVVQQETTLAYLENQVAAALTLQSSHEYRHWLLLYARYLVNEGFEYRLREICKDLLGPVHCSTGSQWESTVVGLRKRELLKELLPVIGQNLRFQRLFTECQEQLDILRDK", "UniProt Q62141": "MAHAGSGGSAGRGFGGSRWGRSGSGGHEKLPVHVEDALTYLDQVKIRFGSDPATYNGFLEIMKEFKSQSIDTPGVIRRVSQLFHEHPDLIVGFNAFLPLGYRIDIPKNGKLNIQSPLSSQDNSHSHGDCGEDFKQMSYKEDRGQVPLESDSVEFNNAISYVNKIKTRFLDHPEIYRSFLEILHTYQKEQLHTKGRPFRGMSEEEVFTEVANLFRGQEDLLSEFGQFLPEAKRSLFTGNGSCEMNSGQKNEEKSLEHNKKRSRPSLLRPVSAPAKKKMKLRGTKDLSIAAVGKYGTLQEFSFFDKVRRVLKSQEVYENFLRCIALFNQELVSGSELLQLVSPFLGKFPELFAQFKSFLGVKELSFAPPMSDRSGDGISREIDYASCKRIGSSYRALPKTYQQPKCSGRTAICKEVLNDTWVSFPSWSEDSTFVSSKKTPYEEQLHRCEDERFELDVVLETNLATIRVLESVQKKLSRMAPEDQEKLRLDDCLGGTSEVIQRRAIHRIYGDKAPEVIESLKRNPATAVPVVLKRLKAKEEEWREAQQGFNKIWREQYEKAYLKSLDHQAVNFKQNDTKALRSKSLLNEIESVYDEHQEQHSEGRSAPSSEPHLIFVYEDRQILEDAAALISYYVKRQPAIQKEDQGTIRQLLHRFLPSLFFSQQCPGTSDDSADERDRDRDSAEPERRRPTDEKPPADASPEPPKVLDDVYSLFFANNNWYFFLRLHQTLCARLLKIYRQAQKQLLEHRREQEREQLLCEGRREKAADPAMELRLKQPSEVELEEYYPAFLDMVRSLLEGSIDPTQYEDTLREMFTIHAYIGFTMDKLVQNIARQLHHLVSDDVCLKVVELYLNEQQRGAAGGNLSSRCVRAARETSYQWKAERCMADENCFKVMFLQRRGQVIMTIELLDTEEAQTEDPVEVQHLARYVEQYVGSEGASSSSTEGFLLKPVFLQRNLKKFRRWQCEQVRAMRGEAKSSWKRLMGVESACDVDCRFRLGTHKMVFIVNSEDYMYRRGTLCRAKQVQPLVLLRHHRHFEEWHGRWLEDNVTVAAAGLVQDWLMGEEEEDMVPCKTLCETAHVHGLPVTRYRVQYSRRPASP", "UniProt Q61316": "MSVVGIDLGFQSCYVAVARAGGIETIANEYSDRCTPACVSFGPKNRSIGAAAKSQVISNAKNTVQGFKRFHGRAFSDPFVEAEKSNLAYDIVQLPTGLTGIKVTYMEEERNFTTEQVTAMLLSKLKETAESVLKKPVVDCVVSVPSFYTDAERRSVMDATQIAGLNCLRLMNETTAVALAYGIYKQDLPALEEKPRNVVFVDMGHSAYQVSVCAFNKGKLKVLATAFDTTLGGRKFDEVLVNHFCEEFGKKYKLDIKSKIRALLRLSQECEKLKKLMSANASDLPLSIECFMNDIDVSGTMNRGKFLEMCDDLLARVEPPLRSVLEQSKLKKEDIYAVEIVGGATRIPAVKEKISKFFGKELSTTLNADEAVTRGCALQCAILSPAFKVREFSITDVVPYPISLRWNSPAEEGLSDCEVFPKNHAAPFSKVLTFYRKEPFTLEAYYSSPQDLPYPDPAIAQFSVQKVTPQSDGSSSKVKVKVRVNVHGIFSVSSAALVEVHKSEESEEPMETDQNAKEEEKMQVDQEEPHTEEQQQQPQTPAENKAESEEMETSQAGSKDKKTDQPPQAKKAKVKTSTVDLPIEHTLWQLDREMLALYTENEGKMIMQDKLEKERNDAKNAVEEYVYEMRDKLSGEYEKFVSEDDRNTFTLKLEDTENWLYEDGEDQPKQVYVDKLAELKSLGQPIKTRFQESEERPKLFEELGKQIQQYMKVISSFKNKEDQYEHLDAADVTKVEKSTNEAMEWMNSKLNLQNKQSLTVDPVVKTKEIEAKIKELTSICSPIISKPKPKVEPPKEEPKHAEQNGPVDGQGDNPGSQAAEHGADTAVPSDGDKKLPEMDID", "UniProt Q64267": "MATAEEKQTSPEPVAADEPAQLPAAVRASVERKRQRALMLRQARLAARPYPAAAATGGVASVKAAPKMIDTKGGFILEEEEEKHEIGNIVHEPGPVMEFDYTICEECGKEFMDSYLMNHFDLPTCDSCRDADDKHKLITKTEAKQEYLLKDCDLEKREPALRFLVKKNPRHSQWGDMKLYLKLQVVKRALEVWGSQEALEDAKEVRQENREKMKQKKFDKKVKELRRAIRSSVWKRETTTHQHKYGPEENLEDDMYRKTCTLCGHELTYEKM", "UniProt Q61817": "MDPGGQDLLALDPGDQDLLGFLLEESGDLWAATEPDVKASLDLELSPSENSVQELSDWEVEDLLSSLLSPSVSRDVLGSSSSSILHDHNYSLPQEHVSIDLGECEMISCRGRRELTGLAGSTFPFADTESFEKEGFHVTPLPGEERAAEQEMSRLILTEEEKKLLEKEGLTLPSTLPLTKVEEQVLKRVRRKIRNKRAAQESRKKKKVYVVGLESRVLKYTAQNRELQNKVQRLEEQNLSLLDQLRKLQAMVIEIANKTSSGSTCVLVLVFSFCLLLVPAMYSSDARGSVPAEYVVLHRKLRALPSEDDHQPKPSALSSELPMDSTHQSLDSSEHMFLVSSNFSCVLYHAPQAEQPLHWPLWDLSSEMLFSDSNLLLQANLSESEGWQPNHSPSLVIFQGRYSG", "UniProt Q64467": "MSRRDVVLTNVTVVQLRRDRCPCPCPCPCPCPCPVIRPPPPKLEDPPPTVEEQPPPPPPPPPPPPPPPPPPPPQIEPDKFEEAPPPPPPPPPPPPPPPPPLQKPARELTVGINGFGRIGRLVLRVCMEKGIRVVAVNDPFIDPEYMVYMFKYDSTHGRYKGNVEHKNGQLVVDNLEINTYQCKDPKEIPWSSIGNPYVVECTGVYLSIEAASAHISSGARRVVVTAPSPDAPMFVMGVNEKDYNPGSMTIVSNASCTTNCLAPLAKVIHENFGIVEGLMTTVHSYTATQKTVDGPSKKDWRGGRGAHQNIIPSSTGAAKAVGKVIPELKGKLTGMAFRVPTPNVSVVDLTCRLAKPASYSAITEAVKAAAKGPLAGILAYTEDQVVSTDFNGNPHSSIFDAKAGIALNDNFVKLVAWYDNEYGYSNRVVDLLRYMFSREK", "UniProt Q64727": "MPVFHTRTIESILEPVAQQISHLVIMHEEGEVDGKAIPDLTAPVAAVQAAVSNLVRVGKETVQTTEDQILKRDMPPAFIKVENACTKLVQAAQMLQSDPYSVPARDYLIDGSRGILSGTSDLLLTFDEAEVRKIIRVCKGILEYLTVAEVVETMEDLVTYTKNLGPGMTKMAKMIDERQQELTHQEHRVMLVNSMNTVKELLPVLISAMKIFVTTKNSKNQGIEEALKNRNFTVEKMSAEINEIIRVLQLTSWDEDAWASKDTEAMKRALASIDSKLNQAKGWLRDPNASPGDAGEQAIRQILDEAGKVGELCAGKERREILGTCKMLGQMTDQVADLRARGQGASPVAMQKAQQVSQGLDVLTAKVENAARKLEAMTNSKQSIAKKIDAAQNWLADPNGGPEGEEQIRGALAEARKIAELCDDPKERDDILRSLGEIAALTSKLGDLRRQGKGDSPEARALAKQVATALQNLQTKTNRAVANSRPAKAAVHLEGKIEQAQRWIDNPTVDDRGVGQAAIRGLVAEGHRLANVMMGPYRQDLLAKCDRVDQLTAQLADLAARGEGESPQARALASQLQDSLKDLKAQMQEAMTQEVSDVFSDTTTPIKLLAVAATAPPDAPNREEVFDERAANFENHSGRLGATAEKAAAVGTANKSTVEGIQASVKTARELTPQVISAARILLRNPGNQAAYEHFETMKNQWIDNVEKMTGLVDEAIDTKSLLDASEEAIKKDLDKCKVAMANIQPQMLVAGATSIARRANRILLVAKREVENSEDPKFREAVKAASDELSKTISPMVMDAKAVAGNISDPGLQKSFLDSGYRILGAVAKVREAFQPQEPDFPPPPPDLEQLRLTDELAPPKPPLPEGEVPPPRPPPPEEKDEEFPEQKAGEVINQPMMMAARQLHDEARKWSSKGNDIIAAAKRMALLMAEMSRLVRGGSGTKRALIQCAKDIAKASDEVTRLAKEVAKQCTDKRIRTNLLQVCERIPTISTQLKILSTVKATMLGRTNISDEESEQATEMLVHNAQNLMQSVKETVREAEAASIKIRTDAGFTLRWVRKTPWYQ"}, "source": "the supplement of paper PMC12819154", "about": "“High-throughput peptide-centric local stability assay extends protein–ligand identification to membrane proteins, tissues and bacteria” (Nature Structural & Molecular Biology, 2025)", "note": "The list shows a part of the results. Small differences around the control level are noise.", "data": [{"compound": "CN[C@@H]1C[C@H]2O[C@@](C)([C@@H]1OC)n1c3ccccc3c3c4c(c5c6ccccc6n2c5c31)C(=O)NC4 [staurosporine]", "assay": "log2 fold change of tryptic peptide abundance, ligand vs vehicle (limited proteolysis) (log2 ratio); higher = more trypsin-susceptible (destabilized)", "settings": "ligand concentration: 20 uM; sample: mouse liver crude lysate; replicate design: treated separately", "values": [{"target": "UniProt Q64516 (peptide sequence: EILDAMNR, peptide start residue: 412)", "log2 fold change": 0.198}, {"target": "UniProt Q61469 (peptide sequence: NYSTNHEP, peptide start residue: 276)", "log2 fold change": -0.0913}, {"target": "UniProt Q64521 (peptide sequence: LVGAIVYYDGQHNDAR, peptide start residue: 212)", "log2 fold change": -0.66}, {"target": "UniProt Q61666 (peptide sequence: IHQSTYGK, peptide start residue: 374)", "log2 fold change": 0.404}, {"target": "UniProt Q62141 (peptide sequence: FLDHPEIYR, peptide start residue: 168)", "log2 fold change": 0.462}, {"target": "UniProt Q61382 (peptide sequence: HVEESVKPHLAMMCALVSR, peptide start residue: 269)", "log2 fold change": 0.0179}, {"target": "UniProt Q61316 (peptide sequence: KFDEVLVNHFCEEFGK, peptide start residue: 235)", "log2 fold change": 0.425}, {"target": "UniProt Q64267 (peptide sequence: LAARPYPAAAATGGVASVK, peptide start residue: 45)", "log2 fold change": -0.148}, {"target": "UniProt Q61817 (peptide sequence: AAEQEMSR, peptide start residue: 147)", "log2 fold change": 0.534}, {"target": "UniProt Q64467 (peptide sequence: AGIALNDNFVK, peptide start residue: 403)", "log2 fold change": -0.22}, {"target": "UniProt Q64727 (peptide sequence: IRTNLLQVCERIPTISTQLK, peptide start residue: 977)", "log2 fold change": 0.604}]}]}
